Source: the supplement of paper PMC10849652
The other results are listed elsewhere or left out.

Protein sequences, listed by entry. Tags and fused reporters are not part of them. Lines headed by an entry give the natural chain unless they say otherwise; changes in a name come on top.
UniProt Q6ZTN6: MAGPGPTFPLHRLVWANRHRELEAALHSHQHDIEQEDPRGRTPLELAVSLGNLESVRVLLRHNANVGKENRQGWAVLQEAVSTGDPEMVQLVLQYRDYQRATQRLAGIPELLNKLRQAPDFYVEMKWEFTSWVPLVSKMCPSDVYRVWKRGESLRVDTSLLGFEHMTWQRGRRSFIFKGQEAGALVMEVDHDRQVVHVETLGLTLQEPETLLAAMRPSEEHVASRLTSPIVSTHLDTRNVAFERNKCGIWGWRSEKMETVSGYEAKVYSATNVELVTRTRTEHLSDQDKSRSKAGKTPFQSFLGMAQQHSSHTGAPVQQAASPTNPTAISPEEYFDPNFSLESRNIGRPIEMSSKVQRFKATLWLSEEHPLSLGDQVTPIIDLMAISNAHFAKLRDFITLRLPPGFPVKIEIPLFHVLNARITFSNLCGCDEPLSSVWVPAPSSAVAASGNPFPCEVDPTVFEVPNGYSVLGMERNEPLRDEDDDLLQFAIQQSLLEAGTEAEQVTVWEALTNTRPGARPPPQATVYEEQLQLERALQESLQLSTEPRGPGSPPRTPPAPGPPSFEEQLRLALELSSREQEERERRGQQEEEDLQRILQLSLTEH
UniProt Q6NS38: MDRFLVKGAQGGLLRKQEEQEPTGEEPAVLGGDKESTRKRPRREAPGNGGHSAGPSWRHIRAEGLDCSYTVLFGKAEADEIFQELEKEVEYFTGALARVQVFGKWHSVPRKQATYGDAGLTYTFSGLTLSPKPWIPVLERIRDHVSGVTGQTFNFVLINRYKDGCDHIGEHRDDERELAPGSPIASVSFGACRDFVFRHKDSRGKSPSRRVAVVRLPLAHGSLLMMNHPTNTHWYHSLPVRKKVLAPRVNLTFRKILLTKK
UniProt Q02252: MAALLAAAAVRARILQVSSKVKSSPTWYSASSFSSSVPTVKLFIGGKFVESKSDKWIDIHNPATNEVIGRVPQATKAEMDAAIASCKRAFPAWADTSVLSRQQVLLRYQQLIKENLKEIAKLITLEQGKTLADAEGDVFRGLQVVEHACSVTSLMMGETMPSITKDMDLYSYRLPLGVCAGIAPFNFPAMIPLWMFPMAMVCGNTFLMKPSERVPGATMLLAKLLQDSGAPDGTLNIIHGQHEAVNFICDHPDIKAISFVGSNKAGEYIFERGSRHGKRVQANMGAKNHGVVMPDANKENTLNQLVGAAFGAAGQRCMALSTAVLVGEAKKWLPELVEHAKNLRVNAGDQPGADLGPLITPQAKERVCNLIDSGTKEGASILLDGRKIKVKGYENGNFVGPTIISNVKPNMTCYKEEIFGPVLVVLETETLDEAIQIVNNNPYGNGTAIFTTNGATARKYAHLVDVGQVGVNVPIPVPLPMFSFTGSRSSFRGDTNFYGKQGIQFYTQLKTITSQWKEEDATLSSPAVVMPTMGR
UniProt Q96Q42: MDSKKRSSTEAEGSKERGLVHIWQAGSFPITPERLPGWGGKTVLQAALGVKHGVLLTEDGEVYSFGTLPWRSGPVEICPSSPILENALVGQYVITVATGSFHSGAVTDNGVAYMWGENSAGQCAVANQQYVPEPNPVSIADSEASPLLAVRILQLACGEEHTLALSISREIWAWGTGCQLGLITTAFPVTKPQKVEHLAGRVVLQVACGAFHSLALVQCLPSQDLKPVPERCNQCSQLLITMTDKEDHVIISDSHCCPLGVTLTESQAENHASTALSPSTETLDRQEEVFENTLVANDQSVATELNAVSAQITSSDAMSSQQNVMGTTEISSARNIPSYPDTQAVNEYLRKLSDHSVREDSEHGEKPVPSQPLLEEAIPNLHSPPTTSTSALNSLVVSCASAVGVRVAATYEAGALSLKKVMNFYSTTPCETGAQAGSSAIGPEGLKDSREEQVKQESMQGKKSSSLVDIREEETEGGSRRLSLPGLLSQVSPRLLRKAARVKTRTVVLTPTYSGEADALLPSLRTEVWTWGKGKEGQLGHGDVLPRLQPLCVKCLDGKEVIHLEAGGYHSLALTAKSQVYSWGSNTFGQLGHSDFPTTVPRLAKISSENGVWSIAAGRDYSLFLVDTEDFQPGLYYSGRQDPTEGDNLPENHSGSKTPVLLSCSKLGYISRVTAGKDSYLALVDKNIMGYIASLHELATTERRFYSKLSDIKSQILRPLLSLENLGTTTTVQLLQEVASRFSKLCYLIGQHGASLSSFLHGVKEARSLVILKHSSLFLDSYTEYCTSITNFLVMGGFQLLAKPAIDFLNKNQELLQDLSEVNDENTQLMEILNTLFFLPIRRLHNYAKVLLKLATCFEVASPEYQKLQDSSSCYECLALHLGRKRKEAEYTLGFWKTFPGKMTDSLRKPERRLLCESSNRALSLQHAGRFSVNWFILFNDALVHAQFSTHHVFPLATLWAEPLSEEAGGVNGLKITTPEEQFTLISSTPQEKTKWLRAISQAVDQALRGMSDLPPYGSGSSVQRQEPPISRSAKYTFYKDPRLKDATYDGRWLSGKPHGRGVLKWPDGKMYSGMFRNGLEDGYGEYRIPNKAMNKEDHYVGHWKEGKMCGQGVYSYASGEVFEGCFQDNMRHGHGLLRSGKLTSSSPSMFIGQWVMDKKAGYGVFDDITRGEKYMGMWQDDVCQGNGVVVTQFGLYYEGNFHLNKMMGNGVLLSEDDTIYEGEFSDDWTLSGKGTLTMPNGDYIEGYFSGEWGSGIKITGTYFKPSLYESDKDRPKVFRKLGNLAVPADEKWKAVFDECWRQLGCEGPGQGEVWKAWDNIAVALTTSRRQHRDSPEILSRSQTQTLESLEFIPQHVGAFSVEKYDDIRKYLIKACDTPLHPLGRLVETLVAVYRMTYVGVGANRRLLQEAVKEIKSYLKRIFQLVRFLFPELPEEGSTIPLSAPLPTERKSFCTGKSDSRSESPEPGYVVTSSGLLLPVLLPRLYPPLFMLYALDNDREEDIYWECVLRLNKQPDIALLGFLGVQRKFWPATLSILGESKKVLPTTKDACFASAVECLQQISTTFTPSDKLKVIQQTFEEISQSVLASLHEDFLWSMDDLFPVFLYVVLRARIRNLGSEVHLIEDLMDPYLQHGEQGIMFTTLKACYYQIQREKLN
UniProt P07355, whole entry, looked up: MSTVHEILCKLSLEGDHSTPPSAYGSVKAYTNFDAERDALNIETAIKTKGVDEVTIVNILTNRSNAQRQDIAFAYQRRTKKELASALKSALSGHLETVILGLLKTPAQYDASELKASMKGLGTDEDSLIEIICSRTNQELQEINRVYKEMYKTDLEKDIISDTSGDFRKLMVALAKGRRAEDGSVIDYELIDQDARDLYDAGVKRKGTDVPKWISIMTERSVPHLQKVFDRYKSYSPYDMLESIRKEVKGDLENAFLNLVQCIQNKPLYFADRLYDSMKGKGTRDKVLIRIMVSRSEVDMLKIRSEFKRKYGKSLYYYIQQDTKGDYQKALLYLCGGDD
UniProt P30038: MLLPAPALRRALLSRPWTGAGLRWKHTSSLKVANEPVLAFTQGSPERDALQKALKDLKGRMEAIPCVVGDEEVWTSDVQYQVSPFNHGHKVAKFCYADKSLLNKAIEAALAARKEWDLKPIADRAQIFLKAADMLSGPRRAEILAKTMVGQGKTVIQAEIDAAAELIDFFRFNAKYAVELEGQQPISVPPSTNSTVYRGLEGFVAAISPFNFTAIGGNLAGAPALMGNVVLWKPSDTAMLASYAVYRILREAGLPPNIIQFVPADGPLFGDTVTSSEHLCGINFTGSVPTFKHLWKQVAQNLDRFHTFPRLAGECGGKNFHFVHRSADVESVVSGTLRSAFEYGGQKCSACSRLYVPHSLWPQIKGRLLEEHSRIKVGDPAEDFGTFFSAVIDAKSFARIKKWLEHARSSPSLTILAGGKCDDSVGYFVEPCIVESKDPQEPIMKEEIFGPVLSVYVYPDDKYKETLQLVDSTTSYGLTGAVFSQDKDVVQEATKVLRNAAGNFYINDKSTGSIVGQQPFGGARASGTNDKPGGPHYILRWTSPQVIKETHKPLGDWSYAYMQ
UniProt Q01433: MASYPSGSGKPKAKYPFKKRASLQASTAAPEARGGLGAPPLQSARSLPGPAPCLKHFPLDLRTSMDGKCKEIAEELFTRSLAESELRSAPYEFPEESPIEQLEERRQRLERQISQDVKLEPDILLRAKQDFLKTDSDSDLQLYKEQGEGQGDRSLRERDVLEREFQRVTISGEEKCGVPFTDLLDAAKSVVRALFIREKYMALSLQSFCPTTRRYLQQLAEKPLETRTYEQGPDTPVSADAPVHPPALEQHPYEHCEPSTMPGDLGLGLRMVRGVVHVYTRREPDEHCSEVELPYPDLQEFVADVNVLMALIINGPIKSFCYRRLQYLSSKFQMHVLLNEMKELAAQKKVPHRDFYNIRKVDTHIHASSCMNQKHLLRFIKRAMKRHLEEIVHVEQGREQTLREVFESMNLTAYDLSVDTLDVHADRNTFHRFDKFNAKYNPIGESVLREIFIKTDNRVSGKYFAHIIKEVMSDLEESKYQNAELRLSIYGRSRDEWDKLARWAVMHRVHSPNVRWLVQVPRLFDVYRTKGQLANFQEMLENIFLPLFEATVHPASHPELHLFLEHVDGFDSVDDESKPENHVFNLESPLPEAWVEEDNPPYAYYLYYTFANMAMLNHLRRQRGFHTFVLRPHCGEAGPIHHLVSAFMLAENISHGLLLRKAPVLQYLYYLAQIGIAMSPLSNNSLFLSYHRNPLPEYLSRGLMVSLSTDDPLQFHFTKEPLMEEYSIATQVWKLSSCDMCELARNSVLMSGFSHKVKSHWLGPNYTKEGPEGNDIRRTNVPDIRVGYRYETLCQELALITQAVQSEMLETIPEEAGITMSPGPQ
UniProt Q9UPM8: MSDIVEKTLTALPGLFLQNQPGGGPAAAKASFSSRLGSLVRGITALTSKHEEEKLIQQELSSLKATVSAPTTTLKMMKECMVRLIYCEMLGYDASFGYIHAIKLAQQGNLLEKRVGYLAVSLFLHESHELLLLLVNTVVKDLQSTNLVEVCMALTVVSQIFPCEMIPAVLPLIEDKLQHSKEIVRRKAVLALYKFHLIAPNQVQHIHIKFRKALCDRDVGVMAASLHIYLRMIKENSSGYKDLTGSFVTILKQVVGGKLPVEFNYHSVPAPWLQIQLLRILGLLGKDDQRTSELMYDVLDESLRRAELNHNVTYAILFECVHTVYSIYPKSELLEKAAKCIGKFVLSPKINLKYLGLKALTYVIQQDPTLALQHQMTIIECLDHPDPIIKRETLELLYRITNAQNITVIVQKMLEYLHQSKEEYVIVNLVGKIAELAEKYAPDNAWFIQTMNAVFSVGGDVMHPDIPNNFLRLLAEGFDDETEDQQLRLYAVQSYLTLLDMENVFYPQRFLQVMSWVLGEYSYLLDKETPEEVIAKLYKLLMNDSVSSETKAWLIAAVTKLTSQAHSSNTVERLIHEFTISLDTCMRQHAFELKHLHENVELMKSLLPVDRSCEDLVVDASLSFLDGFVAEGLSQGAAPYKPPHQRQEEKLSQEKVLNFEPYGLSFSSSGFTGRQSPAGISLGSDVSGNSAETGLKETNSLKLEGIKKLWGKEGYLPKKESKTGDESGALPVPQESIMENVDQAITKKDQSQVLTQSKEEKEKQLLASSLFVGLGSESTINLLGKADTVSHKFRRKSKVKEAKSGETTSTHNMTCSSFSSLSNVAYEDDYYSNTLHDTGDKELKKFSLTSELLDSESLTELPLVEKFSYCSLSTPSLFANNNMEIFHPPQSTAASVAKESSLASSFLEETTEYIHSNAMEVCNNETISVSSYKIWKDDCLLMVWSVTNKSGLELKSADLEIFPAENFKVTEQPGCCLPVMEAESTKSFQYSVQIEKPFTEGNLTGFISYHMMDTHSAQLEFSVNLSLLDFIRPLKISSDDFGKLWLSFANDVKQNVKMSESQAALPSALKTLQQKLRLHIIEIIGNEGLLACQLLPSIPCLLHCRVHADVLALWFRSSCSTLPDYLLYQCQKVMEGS
UniProt P51649: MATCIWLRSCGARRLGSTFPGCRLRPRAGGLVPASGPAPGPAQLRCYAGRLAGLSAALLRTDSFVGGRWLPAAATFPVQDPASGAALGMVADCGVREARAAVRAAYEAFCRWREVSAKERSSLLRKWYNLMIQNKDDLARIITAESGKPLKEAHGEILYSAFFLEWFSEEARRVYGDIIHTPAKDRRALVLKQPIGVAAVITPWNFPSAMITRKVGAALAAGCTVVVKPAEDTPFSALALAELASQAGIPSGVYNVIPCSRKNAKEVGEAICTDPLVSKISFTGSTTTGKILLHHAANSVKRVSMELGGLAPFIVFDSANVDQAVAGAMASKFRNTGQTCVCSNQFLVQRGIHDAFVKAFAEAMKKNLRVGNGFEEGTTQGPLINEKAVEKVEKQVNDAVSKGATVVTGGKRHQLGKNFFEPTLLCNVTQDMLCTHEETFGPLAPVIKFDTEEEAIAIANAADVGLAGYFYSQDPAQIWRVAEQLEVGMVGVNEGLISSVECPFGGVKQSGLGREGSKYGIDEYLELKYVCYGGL

compound: CC1=C(C=C(C=C1)NC(=O)C2=CC(=CC=C2)C(C)(C)C#N)NC3=CC4=C(C=C3)N=CN(C4=O)C; test: log2 fold change, soluble protein after heating vs DMSO (PISA); higher = thermal stabilisation; K562 lysate, 10 uM; active = over 0.2 and 3.5 SD of the protein, either way, in both replicates (recomputed)
In short: (§1)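 Soluble protein was defined as the supernatant remaining after 21,000xg for 90 min, following pooling of heated aliquots and adjustment to 0.5% NP-40 at 4°C. Before that, crude K562 extract at 1 mg/mL protein in PBS pH 7.4 with 1 mM MgCl2 was treated with 10 μM compound for 30 min and heated for 3 min across 48°C-58°C. Quantification used TMTpro 16plex LC-MS/MS with channel sums equalised, and values are log-two fold changes in thermal stability relative to solvent controls from duplicates.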

Target | log2 fold change
AP1S2 isoform 2 (UniProt P56377) | inactive: 0.043
ANAPC10 (UniProt Q9UM13) | inactive: 0.041
ANKRD13D isoform 3 (UniProt Q6ZTN6) | inactive: 0.033
AP3D1 isoform 5 (UniProt O14617) | inactive: 0.011
ALKBH2 (UniProt Q6NS38) | inactive: 0.123
AP3S1 (UniProt Q92572) | inactive: -0.001
ALDH6A1 (UniProt Q02252) | inactive: 0.025
ANGEL2 (UniProt Q5VTE6) | inactive: -0.065
ALS2 (UniProt Q96Q42) | inactive: -0.024
AKT2 (UniProt P31751) | inactive: 0.005
ANXA2 isoform 2 (UniProt P07355) | inactive: -0.024
ANP32A (UniProt P39687) | inactive: -0.025
ANTXR2 isoform 4 (UniProt P58335) | inactive: 0.036
AP3B2 isoform 4 (UniProt Q13367) | inactive: -0.009
ALDH18A1 (UniProt P54886) | inactive: 0.022
ANKRD54 (UniProt Q6NXT1) | inactive: -0.006
ALG2 (UniProt Q9H553) | inactive: -0.009

Target | log2 fold change
ALDH4A1 (UniProt P30038) | inactive: -0.043
ALDH1A1 (UniProt P00352) | inactive: -0.005
ANKRD52 (UniProt Q8NB46) | inactive: 0.011
ANXA7 (UniProt P20073) | inactive: -0.031
AMPD3 isoform 4 (UniProt Q01432) | inactive: 0.006
ALDOA (UniProt P04075) | inactive: 0.034
ANXA2 (UniProt H0YL33) | inactive: -0.211
AMPD2 (UniProt Q01433) | inactive: -0.021
AP4E1 (UniProt Q9UPM8) | inactive: -0.007
AKT1 (UniProt P31749) | inactive: 0
AP1G1 isoform 2 (UniProt O43747) | inactive: 0.013
ANKHD1 isoform 6 (UniProt Q8IWZ3) | inactive: -0.071
ANXA1 (UniProt P04083) | inactive: -0.024
ALKBH8 isoform 4 (UniProt Q96BT7) | inactive: -0.015
AMD1 (UniProt P17707) | inactive: 0.155
ANLN (UniProt Q9NQW6) | inactive: 0.026
ALDH5A1 isoform 2 (UniProt P51649) | inactive: 0.021

compound: CC1=C(C=C(C=C1)NC(=O)C2=CC(=CC=C2)N(C)C)NC(=O)C3=CC=C(C=C3)O; test: as above
In short: as §1

Target | log2 fold change
AP1S2 isoform 2 (UniProt P56377) | inactive: -0.008
ANAPC10 (UniProt Q9UM13) | inactive: 0.001
ANKRD13D isoform 3 (UniProt Q6ZTN6) | inactive: 0.01
AP3D1 isoform 5 (UniProt O14617) | inactive: 0.01
ALKBH2 (UniProt Q6NS38) | inactive: 0.13
AP3S1 (UniProt Q92572) | inactive: -0.052
ALDH6A1 (UniProt Q02252) | inactive: -0.066
ANGEL2 (UniProt Q5VTE6) | inactive: 0.028
ALS2 (UniProt Q96Q42) | inactive: 0.114
AKT2 (UniProt P31751) | inactive: -0.004
ANXA2 isoform 2 (UniProt P07355) | inactive: -0.01
ANP32A (UniProt P39687) | inactive: -0.046
ANTXR2 isoform 4 (UniProt P58335) | inactive: 0.013
AP3B2 isoform 4 (UniProt Q13367) | inactive: 0.022
ALDH18A1 (UniProt P54886) | inactive: 0.016
ANKRD54 (UniProt Q6NXT1) | inactive: 0.01
ALG2 (UniProt Q9H553) | inactive: 0.07

Target | log2 fold change
ALDH4A1 (UniProt P30038) | inactive: 0.054
ALDH1A1 (UniProt P00352) | inactive: 0.028
ANKRD52 (UniProt Q8NB46) | inactive: 0.047
ANXA7 (UniProt P20073) | inactive: -0.031
AMPD3 isoform 4 (UniProt Q01432) | inactive: -0.004
ALDOA (UniProt P04075) | inactive: -0.002
ANXA2 (UniProt H0YL33) | inactive: 0.005
AMPD2 (UniProt Q01433) | inactive: -0.012
AP4E1 (UniProt Q9UPM8) | inactive: 0.016
AKT1 (UniProt P31749) | inactive: -0.006
AP1G1 isoform 2 (UniProt O43747) | inactive: -0.044
ANKHD1 isoform 6 (UniProt Q8IWZ3) | inactive: 0.018
ANXA1 (UniProt P04083) | inactive: 0.025
ALKBH8 isoform 4 (UniProt Q96BT7) | inactive: 0.014
AMD1 (UniProt P17707) | inactive: -0.023
ANLN (UniProt Q9NQW6) | inactive: 0.029
ALDH5A1 isoform 2 (UniProt P51649) | inactive: -0.022
